From publication PMC11791976, “CDC20‐Mediated Selective Autophagy Degradation of PBRM1 Affects Immunotherapy for Renal Cell Carcinoma” (Advanced Science, 2024)

Sequences of proteins named here, by UniProt entry; tags and fusion partners are left off.
UniProt Q86U86: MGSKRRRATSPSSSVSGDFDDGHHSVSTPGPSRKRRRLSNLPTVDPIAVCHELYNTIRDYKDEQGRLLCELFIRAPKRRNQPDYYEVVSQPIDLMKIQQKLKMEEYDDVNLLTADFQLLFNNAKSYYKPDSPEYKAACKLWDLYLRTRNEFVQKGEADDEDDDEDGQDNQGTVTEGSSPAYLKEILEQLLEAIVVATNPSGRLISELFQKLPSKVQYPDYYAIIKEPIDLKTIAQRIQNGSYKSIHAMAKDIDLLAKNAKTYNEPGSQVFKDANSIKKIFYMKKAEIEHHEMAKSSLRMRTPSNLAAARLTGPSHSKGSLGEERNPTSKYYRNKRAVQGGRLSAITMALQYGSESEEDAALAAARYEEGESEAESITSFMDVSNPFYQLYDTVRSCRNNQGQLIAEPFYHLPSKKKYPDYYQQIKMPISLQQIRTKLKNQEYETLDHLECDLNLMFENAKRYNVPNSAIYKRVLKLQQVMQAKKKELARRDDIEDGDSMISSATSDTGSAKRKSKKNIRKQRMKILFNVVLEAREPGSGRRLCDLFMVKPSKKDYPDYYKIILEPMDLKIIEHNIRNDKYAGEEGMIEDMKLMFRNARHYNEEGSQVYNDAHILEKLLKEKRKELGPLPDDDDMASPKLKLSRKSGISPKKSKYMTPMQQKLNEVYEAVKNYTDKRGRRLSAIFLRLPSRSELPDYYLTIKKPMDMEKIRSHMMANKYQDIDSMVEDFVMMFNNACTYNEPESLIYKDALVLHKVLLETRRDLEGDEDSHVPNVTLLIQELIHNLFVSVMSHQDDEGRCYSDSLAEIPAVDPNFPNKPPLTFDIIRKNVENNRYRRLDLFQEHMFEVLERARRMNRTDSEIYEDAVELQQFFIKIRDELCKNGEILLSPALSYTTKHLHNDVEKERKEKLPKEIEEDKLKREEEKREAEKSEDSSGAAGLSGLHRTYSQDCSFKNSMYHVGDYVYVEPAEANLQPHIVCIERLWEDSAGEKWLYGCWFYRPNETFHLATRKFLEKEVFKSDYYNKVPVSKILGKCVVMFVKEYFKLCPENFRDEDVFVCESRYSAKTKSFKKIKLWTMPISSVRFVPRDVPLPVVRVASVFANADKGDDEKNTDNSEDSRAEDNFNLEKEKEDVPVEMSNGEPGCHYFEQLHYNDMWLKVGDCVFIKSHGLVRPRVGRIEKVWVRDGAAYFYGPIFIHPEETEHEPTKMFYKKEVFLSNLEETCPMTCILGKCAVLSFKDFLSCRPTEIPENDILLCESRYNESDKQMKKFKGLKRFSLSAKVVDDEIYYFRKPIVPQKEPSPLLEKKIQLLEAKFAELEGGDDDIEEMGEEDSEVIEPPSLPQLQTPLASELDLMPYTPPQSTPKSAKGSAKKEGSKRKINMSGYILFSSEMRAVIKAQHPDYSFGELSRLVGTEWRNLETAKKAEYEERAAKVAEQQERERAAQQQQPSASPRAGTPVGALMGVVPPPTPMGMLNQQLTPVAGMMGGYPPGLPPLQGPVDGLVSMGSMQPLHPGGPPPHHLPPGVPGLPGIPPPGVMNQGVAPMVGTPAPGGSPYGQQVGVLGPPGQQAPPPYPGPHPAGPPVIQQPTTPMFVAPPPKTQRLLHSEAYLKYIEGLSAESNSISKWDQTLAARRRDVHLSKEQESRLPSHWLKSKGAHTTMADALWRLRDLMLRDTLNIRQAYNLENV
UniProt Q12834: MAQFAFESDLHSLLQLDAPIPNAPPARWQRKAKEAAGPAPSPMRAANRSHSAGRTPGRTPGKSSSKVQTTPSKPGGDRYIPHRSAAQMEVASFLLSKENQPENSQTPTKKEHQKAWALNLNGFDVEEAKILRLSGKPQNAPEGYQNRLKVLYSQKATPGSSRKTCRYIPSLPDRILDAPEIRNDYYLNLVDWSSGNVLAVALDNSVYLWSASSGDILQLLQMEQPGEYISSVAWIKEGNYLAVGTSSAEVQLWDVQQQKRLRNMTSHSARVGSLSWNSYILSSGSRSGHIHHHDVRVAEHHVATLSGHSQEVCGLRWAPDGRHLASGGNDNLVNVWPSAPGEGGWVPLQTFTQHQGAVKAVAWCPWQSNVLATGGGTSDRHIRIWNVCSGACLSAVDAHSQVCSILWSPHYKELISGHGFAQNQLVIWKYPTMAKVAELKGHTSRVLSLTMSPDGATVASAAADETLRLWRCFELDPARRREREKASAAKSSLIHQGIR

Target: Flag-tagged PBRM1 (Polybromo 1), pcDNA3.1-PBRM1-3xFlag (UniProt Q86U86)
Test: affinity purification with mass spectrometry; anti-Flag immunoprecipitates of 293T cells transfected with Flag-tagged PBRM1, LC-MS/MS

- binding: binds
Substance: CDC20 (cell division cycle 20 homologue), endogenous (from UniProt Q12834 1-499)

No constants are given. Whether binding was seen depends on the method and setting. In cells and extracts the contact can be indirect. A yes stands for co-enrichment or nearness to the bait. Other partners may have been found.
